Data source: PubChem BioAssay AID1259327 (Drosophila RNAi Screening Center, 2017)

Test: 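Baseline ATP after transmembrane-protein gene knock-down with water vehicle only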
System: Drosophila S2R+ cells
Knock-down reagent: long dsRNA against Drosophila genes
Duration: 5 days (water added on day 4, read one day later)
Treatment: water added as vehicle, no metal, one day before read-out
Detection: 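Total ATP measured by luciferase light, scaled to plate mean, duplicates averaged, then z-scored across plates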
Reading the numbers: ATP z-score: higher = more total ATP than typical wells; ATP luminescence: higher = more total ATP
Hit rule: 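a hit is any knock-down whose absolute ATP z-score is greater than 1.5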
Meaning of the calls: active = hit: ATP up or down; inactive = no clear ATP change
The whole screen tested about 3,100 reagents; shown is a part drawn at random. 378 of all reagents (12%) count as active. 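Hits include both directions; z-score sign shows ATP rise or fall; raw luminescence values are not plate-normalised.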 Reagent sequences are not shown. Not stated in the record: the amount of reagent.

After knock-down of CG8468 (GeneID 36577) [DRSC07190], the screen gave ATP z-score, duplicate mean -1.25; ATP luminescence, replicate 1 (RLU) = 5.76e5; ATP luminescence, replicate 2 (RLU) = 4.37e5; inactive. Silencing of CG8468 (GeneID 36577) [DRSC26347] gave: ATP z-score, duplicate mean 0.178; ATP luminescence, replicate 1 (RLU) = 8.79e5; ATP luminescence, replicate 2 (RLU) = 8.65e5; inactive. Nup54 (GeneID 36360) [DRSC07282] showed ATP z-score, duplicate mean 1.45; ATP luminescence, replicate 1 (RLU) = 8.01e5; ATP luminescence, replicate 2 (RLU) = 9.73e5; inactive. Depletion of Ugalt (GeneID 31255) [DRSC18467] came out at: ATP z-score, duplicate mean 0.806; ATP luminescence, replicate 1 (RLU) = 7.56e5; ATP luminescence, replicate 2 (RLU) = 7.69e5; inactive. After knock-down of CG4301 (GeneID 32610) [DRSC19886], the record shows ATP z-score, duplicate mean -0.402; ATP luminescence, replicate 1 (RLU) = 6.12e5; ATP luminescence, replicate 2 (RLU) = 7.03e5; inactive. Depletion of CG4301 (GeneID 32610) [DRSC39420] gave: ATP z-score, duplicate mean -0.29; ATP luminescence, replicate 1 (RLU) = 4.35e5; ATP luminescence, replicate 2 (RLU) = 4.32e5; inactive.

sing (GeneID 32644) [DRSC19530] scored ATP z-score, duplicate mean -1.43; ATP luminescence, replicate 1 (RLU) = 5.62e5; ATP luminescence, replicate 2 (RLU) = 6.13e5; inactive. For sing (GeneID 32644) [DRSC39652], the entry reads ATP z-score, duplicate mean -1.69; ATP luminescence, replicate 1 (RLU) = 3.49e5; ATP luminescence, replicate 2 (RLU) = 3.52e5; active. With knock-down of CG13801 (GeneID 38299) [DRSC08335], the record shows ATP z-score, duplicate mean -0.924; ATP luminescence, replicate 1 (RLU) = 6.04e5; ATP luminescence, replicate 2 (RLU) = 4.67e5; inactive. Silencing of Tpc2 (GeneID 37983) [DRSC04322] came out at: ATP z-score, duplicate mean 0.718; ATP luminescence, replicate 1 (RLU) = 8.28e5; ATP luminescence, replicate 2 (RLU) = 7.77e5; inactive. After knock-down of CG12355 (GeneID 2768954) [DRSC09381], the screen gave ATP z-score, duplicate mean 1.28; ATP luminescence, replicate 1 (RLU) = 8.39e5; ATP luminescence, replicate 2 (RLU) = 8.86e5; inactive. Depletion of CG12355 (GeneID 2768954) [DRSC09883] gave: ATP z-score, duplicate mean -0.155; ATP luminescence, replicate 1 (RLU) = 8.95e5; ATP luminescence, replicate 2 (RLU) = 8.57e5; inactive.

Ordered by “ATP luminescence, replicate 1 (RLU)” (high to low): some entries from above.
CG8468 (GeneID 36577) [DRSC26347] → ATP z-score, duplicate mean = 0.178; ATP luminescence, replicate 1 (RLU) = 8.79e5; ATP luminescence, replicate 2 (RLU) = 8.65e5; activity call = inactive
CG8468 (GeneID 36577) [DRSC07190] → ATP z-score, duplicate mean = -1.25; ATP luminescence, replicate 1 (RLU) = 5.76e5; ATP luminescence, replicate 2 (RLU) = 4.37e5; activity call = inactive
